Some of the results follow.
How the values were obtained:
Test in all cases: glycan array binding signal (z-score within array); higher = stronger binding
Conditions in all cases: glycan notation: IUPAC condensed, linker removed
[1] = molecular target: Man(a1-3)[Man(a1-6)]Man(a1-6)[Man(a1-2)Man(a1-3)]Man(b1-4)GlcNAc(b1-4)GlcNAc
Summary of the method: (§1)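 The Consortium for Functional Glycomics database supplied 3228 glycan arrays, of which those lacking an available protein sequence were dropped. The binding signal, a within-array Z-score, was averaged across arrays of the same protein sequence and across linkers. Negative scores can be read as non-binding.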

[2] = molecular target: Man(a1-3)[Man(a1-6)]Man(a1-6)[Man(a1-3)]Man
Summary of the method: as §1

[3] = molecular target: Man(a1-3)[Man(a1-6)]Man(a1-6)[Man(a1-3)]Man(b1-4)GlcNAc(b1-4)GlcNAc
Summary of the method: as §1

[4] = molecular target: Man(a1-3)[Man(a1-6)]Man(b1-4)GlcNAc(b1-4)GlcNAc
Summary of the method: as §1

[5] = molecular target: Man(a1-3)[Man(a1-6)]Man(b1-4)GlcNAc(b1-4)[Fuc(a1-6)]GlcNAc
Summary of the method: as §1

Man(a1-6)Man = molecular target: Man(a1-6)Man
Summary of the method: as §1

Man(b1-4)GlcNAc = molecular target: Man(b1-4)GlcNAc
Summary of the method: as §1

MurNAc(b1-4)GlcNAc = molecular target: MurNAc(b1-4)GlcNAc
Summary of the method: as §1

Neu5Ac(a2-3)Gal = molecular target: Neu5Ac(a2-3)Gal
Summary of the method: as §1

[6] = molecular target: Neu5Ac(a2-3)Gal(b1-3)GalNAc
Summary of the method: as §1

[7] = molecular target: Neu5Ac(a2-3)Gal(b1-3)GalNAc(b1-3)Gal(a1-4)Gal(b1-4)Glc
Summary of the method: as §1

[8] = molecular target: Neu5Ac(a2-3)Gal(b1-3)GalNAc(b1-4)Gal(b1-4)Glc
Summary of the method: as §1

[9] = molecular target: Neu5Ac(a2-3)Gal(b1-3)GalNAc(b1-4)[Neu5Ac(a2-3)]Gal(b1-4)Glc
Summary of the method: as §1

[10] = molecular target: Neu5Ac(a2-3)Gal(b1-3)GalNAc(b1-4)[Neu5Ac(a2-8)Neu5Ac(a2-3)]Gal(b1-4)Glc
Summary of the method: as §1

[11] = molecular target: Neu5Ac(a2-3)Gal(b1-3)GalNAc6S
Summary of the method: as §1

[12] = molecular target: Neu5Ac(a2-3)Gal(b1-3)GlcNAc
Summary of the method: as §1

[13] = molecular target: Neu5Ac(a2-3)Gal(b1-3)GlcNAc(b1-2)Man
Summary of the method: as §1

[14] = molecular target: Neu5Ac(a2-3)Gal(b1-3)GlcNAc(b1-2)Man(a1-3)[GlcNAc(b1-4)][Neu5Ac(a2-3)Gal(b1-3)GlcNAc(b1-2)Man(a1-6)]Man(b1-4)GlcNAc(b1-4)GlcNAc
Summary of the method: as §1

[15] = molecular target: Neu5Ac(a2-3)Gal(b1-3)GlcNAc(b1-2)Man(a1-3)[Neu5Ac(a2-3)Gal(b1-3)GlcNAc(b1-2)Man(a1-6)]Man(b1-4)GlcNAc(b1-4)GlcNAc
Summary of the method: as §1

[16] = molecular target: Neu5Ac(a2-3)Gal(b1-3)GlcNAc(b1-2)[Neu5Ac(a2-3)Gal(b1-3)GlcNAc(b1-4)]Man(a1-6)[Neu5Ac(a2-3)Gal(b1-3)GlcNAc(b1-2)Man(a1-3)]Man(b1-4)GlcNAc(b1-4)GlcNAc
Summary of the method: as §1

[17] = molecular target: Neu5Ac(a2-3)Gal(b1-3)GlcNAc(b1-3)Gal(b1-3)GlcNAc
Summary of the method: as §1

[18] = molecular target: Neu5Ac(a2-3)Gal(b1-3)GlcNAc(b1-3)Gal(b1-4)GlcNAc
Summary of the method: as §1

[19] = molecular target: Neu5Ac(a2-3)Gal(b1-3)GlcNAc(b1-3)GalNAc
Summary of the method: as §1

[20] = molecular target: Neu5Ac(a2-3)Gal(b1-3)GlcNAc(b1-6)GalNAc
Summary of the method: as §1

[21] = molecular target: Neu5Ac(a2-3)Gal(b1-3)GlcNAc6S
Summary of the method: as §1

[22] = molecular target: Neu5Ac(a2-3)Gal(b1-3)[Fuc(a1-4)]GlcNAc
Summary of the method: as §1

[23] = molecular target: Neu5Ac(a2-3)Gal(b1-3)[Fuc(a1-4)]GlcNAc(b1-3)Gal(b1-3)[Fuc(a1-4)]GlcNAc
Summary of the method: as §1

[24] = molecular target: Neu5Ac(a2-3)Gal(b1-3)[Fuc(a1-4)]GlcNAc(b1-3)Gal(b1-4)[Fuc(a1-3)]GlcNAc
Summary of the method: as §1

[25] = molecular target: Neu5Ac(a2-3)Gal(b1-3)[GlcNAc(b1-6)]GalNAc
Summary of the method: as §1

[26] = molecular target: Neu5Ac(a2-3)Gal(b1-3)[Neu5Ac(a2-6)]GalNAc
Summary of the method: as §1

[27] = molecular target: Neu5Ac(a2-3)Gal(b1-3)[Neu5Ac(a2-6)]GlcNAc(b1-3)[Fuc(a1-3)[Gal(b1-4)]GlcNAc(b1-6)]Gal(b1-4)Glc
Summary of the method: as §1

[28] = molecular target: Neu5Ac(a2-3)Gal(b1-3)]Neu5Ac(a2-3)Gal(b1-4)]GlcNAc
Summary of the method: as §1

Neu5Ac(a2-3)Gal(b1-4)Glc = molecular target: Neu5Ac(a2-3)Gal(b1-4)Glc
Summary of the method: as §1

[29] = molecular target: Neu5Ac(a2-3)Gal(b1-4)GlcNAc
Summary of the method: as §1

[30] = molecular target: Neu5Ac(a2-3)Gal(b1-4)GlcNAc(b1-2)Man
Summary of the method: as §1

[31] = molecular target: Neu5Ac(a2-3)Gal(b1-4)GlcNAc(b1-2)Man(a1-3)[GlcNAc(b1-4)][Neu5Ac(a2-3)Gal(b1-4)GlcNAc(b1-2)Man(a1-6)]Man(b1-4)GlcNAc(b1-4)GlcNAc
Summary of the method: as §1

[32] = molecular target: Neu5Ac(a2-3)Gal(b1-4)GlcNAc(b1-2)Man(a1-3)[Neu5Ac(a2-3)Gal(b1-4)GlcNAc(b1-2)Man(a1-6)]Man(b1-4)GlcNAc(b1-4)GlcNAc
Summary of the method: as §1

[33] = molecular target: Neu5Ac(a2-3)Gal(b1-4)GlcNAc(b1-2)Man(a1-3)[Neu5Ac(a2-3)Gal(b1-4)GlcNAc(b1-2)Man(a1-6)]Man(b1-4)GlcNAc(b1-4)[Fuc(a1-6)]GlcNAc
Summary of the method: as §1

B1: SUN4 (Saccharomyces cerevisiae), P53616 (protein)
chain: MGSSHHHHHHSSGLVPRGSHNGSIYGDLADFSGPYEKFEDGTIPCGQFPSGQGVIPISWLDEGGWSGVENTDTSTGGSCKEGSYCSYACQPGMSKTQWPSDQPSDGRSIGGLLCKDGYLYRSNTDTDYLCEWGVDAAYVVSELSNDVAICRTDYPGTENMVIPTYVQAGDSLPLTVVDQDTYYTWQGLKTSAQYYVNNAGISVEDACVWGSSSSGVGNWAPLNFGAGSSDGVAYLSLIPNPNNGNALNFNVKIVAADDSSTVNGECIYENGSFSGGSDGCTVSVTAGKAKFVLYN
[1]
  glycan array binding signal (z-score): 0.369
[2]
  glycan array binding signal (z-score): -0.428
[3]
  glycan array binding signal (z-score): -0.239
[4]
  glycan array binding signal (z-score): -0.947
[5]
  glycan array binding signal (z-score): 0.484
Man(a1-6)Man
  glycan array binding signal (z-score): -1.14
Man(b1-4)GlcNAc
  glycan array binding signal (z-score): -0.588
MurNAc(b1-4)GlcNAc
  glycan array binding signal (z-score): -1.2
Neu5Ac(a2-3)Gal
  glycan array binding signal (z-score): -0.565
[6]
  glycan array binding signal (z-score): -0.447
[7]
  glycan array binding signal (z-score): 0.263
[8]
  glycan array binding signal (z-score): -0.196
[9]
  glycan array binding signal (z-score): 0.193
[10]
  glycan array binding signal (z-score): -0.149
[11]
  glycan array binding signal (z-score): 0.335
[12]
  glycan array binding signal (z-score): 0.704
[13]
  glycan array binding signal (z-score): 0.699
[14]
  glycan array binding signal (z-score): -0.802
[15]
  glycan array binding signal (z-score): -0.58
[16]
  glycan array binding signal (z-score): 1.38
[17]
  glycan array binding signal (z-score): 1.52
[18]
  glycan array binding signal (z-score): -0.21
[19]
  glycan array binding signal (z-score): -0.405
[20]
  glycan array binding signal (z-score): 0.252
[21]
  glycan array binding signal (z-score): 0.449
[22]
  glycan array binding signal (z-score): 0.219
[23]
  glycan array binding signal (z-score): -0.09
[24]
  glycan array binding signal (z-score): -0.306
[25]
  glycan array binding signal (z-score): -0.883
[26]
  glycan array binding signal (z-score): -0.426
[27]
  glycan array binding signal (z-score): -0.13
[28]
  glycan array binding signal (z-score): -0.699
Neu5Ac(a2-3)Gal(b1-4)Glc
  glycan array binding signal (z-score): 0.161
[29]
  glycan array binding signal (z-score): -0.138
[30]
  glycan array binding signal (z-score): -0.24
[31]
  glycan array binding signal (z-score): -0.343
[32]
  glycan array binding signal (z-score): 0.18
[33]
  glycan array binding signal (z-score): -0.548

From the supplement of paper PMC8728848
